Source: publication doi:10.1101/2025.04.27.650782

System: NtAGL66 (Nicotiana tabacum)
Test: EMSA
Conditions: 0, 0.06, 0.6 and 11.92 ug protein, 1 nM DNA, 5 mM Mg2+

Sequence: AGACGGATCCATTGCAATAAAAGAAAAAAATCCTGTAGGAATTCGGA (double strand) [AGL66_EMSA_Probe]
- binding result: binds

The exact form of at least one protein or probe is not confirmed.
